Not every detail of the peptide structures is certain; ends, links or a residue may be inferred. Residues, ends and D or L forms follow the SMILES beside them.
System: HepG2 cells
Assay: Liver function test index AST of peptide, t-BHP-treated cells
Assay type: cell-based, human
Conditions: 20 mM t-BHP

CC(C)[C@H](NC(=O)[C@H](CO)NC(=O)[C@@H]1CCCN1C(=O)[C@H](CC(N)=O)NC(=O)[C@H](Cc1ccccc1)NC(=O)[C@H](CC(=O)O)NC(=O)[C@@H](N)CC(=O)O)C(=O)N[C@@H](Cc1c[nH]cn1)C(=O)O [PEP-3] (H-DDFNPSVH-OH; N-terminus and C-terminus assumed)
AST Inhibitory Ability (1 ug/ml peptide): 5% | AST Inhibitory Ability (10 ug/ml peptide): 14%

Source: patent publication US20240316140A1 (UBIO INC., priority 2021, published 2024)
